Results taken from PubChem BioAssay AID1671190 (National Center for Advancing Translational Sciences (NCATS), 2021).
The whole screen tested about 580,000 compounds, of which about 6,100 (1.1%) were called active. Inconclusive means that the source gave no clear call. Such entries were picked first, then a sample of the others. Calls follow the shape of the dose curve; as a rule, active = well fitted inhibition curve with a large enough effect; inconclusive = small, poorly fitted or top-dose-only effect, or another doubt; inactive = no such curve, though single readings can be large or run the other way. A potency beside an inconclusive call is a rough fit, not a confirmed value.

By UniProt entry, the sequences of proteins in these tests, tags left out.
UniProt P18054, whole entry, looked up: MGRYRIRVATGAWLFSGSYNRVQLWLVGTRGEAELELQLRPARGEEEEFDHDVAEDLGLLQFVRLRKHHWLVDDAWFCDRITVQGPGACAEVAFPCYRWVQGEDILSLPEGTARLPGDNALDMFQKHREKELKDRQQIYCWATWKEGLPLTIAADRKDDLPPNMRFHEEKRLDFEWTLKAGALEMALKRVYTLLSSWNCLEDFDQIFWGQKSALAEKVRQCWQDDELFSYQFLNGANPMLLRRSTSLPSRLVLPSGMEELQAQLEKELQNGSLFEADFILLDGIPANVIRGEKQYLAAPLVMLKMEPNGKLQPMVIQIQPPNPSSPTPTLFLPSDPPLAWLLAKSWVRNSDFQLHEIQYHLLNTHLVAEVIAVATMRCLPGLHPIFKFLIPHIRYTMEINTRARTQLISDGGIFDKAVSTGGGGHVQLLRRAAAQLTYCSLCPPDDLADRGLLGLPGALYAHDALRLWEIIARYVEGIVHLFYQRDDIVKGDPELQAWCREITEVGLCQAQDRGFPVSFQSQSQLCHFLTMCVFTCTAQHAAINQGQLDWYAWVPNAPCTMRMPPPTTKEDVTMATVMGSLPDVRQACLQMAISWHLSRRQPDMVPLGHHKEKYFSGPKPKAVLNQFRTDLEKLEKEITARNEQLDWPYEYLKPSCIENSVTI

Target: Polyunsaturated fatty acid lipoxygenase ALOX12 (Homo sapiens) (UniProt P18054)
Experiment: Primary qHTS assay for inhibitors of human arachidonate 12S-lipoxygenase (ALOX12): Round 2
Conditions: purified 12hLO, xylenol orange hydroperoxide absorbance; activity change, negative = inhibition: at 108 µM (top of the series) unless noted
Outline: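 Hydroperoxide product was detected by ferrous iron/xylenol orange as the 573 to 405 nm absorbance ratio. Arachidonic acid at 40 uM (final) was turned over for 30 min at room temperature by 150 nM human 12hLO, pH 7.0 Hepes buffer, after 15 min compound preincubation.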
% is scaled to controls: 0 for no effect and ±100 for the full control effect; potency is read from the fitted curve at half-maximal effect.

Row | SMILES | Potency | activity change, negative = inhibition
1 | COc1cccc(NC(=S)NC(=O)c2cncc(Br)c2)c1 | inconclusive: 100 µM [inhibitor, single point] | 
2 | CCN1/C(=C/C(=S)Nc2ccccc2)Sc2ccccc21 | inconclusive: 11.2 µM [inhibitor, partial curve, poor fit] | 
3 | O=C(C=Cc1cccc(S(=O)(=O)Nc2ccccc2)c1)NO | inconclusive: 0.14 µM [inhibitor, full curve, poor fit] | 
4 | O=C(CCS(=O)(=O)c1nc(-c2ccc3c(c2)OCO3)cc(C(F)(F)F)n1)Nc1ccc(Br)cc1 |  | inactive: -33.8%
5 | Cc1ccc2nc(N3C(=O)C(O)=C(C(=O)c4ccc(C)o4)C3c3ccc(O)cc3)sc2c1 (stereo unspecified) | active: 28.2 µM | 
6 | O=C1C=C(C#Cc2ccc(Oc3ccccc3)cc2)C[C@@H](c2ccc(F)cc2)C1 |  | inactive: 0%
7 | COc1cccc(NC(=O)CSC2=C(C#N)C(c3ccccc3C)C3=C(CCCC3=O)N2)c1 (stereo unspecified) | inconclusive: 15.8 µM [inhibitor, partial curve, poor fit] | 
8 | COc1ccc(CNC(=O)Cc2coc3ccc(C)cc23)cc1 | inconclusive: 141 µM [inhibitor, single point] | 
9 | CCOC(=O)c1c(C)n(C)c2ccc(O)cc12 | inconclusive: 112 µM [inhibitor, single point] | 
10 | CCCCN(CC)C(=O)c1c[nH]c2ccc(S(=O)(=O)N(C)c3ccc(Cl)cc3)cc2c1=O | inconclusive: 56.2 µM [inhibitor, partial curve, poor fit] | 
11 | COc1cc(C2c3c(oc4ccc(F)cc4c3=O)C(=O)N2Cc2ccc3c(c2)OCO3)ccc1O (stereo unspecified) | inconclusive: 141 µM [inhibitor, single point] | 
12 | O=C1CC(c2c(F)cccc2Cl)c2c(ccc3ccccc23)N1 (stereo unspecified) | inconclusive: 126 µM [inhibitor, partial curve, poor fit] | 
13 | CN(CC(=O)Nc1c(Cl)cccc1Cl)C(=O)c1ccc(-n2cncn2)c([N+](=O)[O-])c1 | inconclusive: 0.199 µM [inhibitor, full curve, poor fit] | 
14 | CCCCNC(=O)Nc1nc2ccccc2s1 |  | inactive: -11.5%
15 | Cc1cc(C)c2cccc(NC(=O)C(C)N3C(=O)c4ccccc4C3=O)c2n1 (stereo unspecified) |  | inactive: 31.8%
16 | CC1=CCC2C(=O)N(c3ccc(C)cc3)C(=O)C2C1 (stereo unspecified) |  | inactive: 3.29%
17 | CC(C)(CNC(=O)CCCNC(=O)C1CC1)c1ccccc1 |  | inactive: -25.5%
18 | COCC(=O)NC1CCC12CCN(Cc1ccccn1)CC2 (stereo unspecified) |  | inactive: 109%
19 | Cc1ccc(-c2c(C(=O)O)sc3c2cnc2ccc(C)cc23)cc1 | inconclusive: 39.8 µM [inhibitor, partial curve, poor fit] | 
20 | Cc1cc(-c2nnc(-c3ccccc3)c(-c3ccccc3)n2)c(C)o1 | inconclusive: 50.1 µM [inhibitor, partial curve, poor fit] | 
21 | O=C(c1ccco1)N1CCN(C(=O)c2cnn(-c3ccc(F)cc3)c2-n2cccc2)CC1 | inconclusive: 141 µM [inhibitor, partial curve, poor fit] | 
22 | O=C(Nc1ccc(Oc2cccnc2)cc1)C1CCN(Cc2ccc(F)cc2)CC1 |  | inactive: -2.59%

One compound at a time, as listed above.
`O=C(c1ccco1)N1CCN(C(=O)c2cnn(-c3ccc(F)cc3)c2-n2cccc2)CC1` reads Potency: inconclusive: 141 µM [inhibitor, partial curve, poor fit]
`CCOC(=O)c1c(C)n(C)c2ccc(O)cc12` reads Potency: inconclusive: 112 µM [inhibitor, single point]
`Cc1ccc2nc(N3C(=O)C(O)=C(C(=O)c4ccc(C)o4)C3c3ccc(O)cc3)sc2c1` (stereo unspecified) reads Potency: active: 28.2 µM
`Cc1cc(C)c2cccc(NC(=O)C(C)N3C(=O)c4ccccc4C3=O)c2n1` (stereo unspecified) reads activity change, negative = inhibition: inactive: 31.8%

Remaining list, next part.

Row | SMILES | Potency | activity change, negative = inhibition
23 | COc1ccc(-c2cc(N3CCCC(NC(=O)c4cccc(OC)c4)C3)n[nH]2)cc1 (stereo unspecified) |  | inactive: 35.4%
24 | COCCC(=O)N[C@H]1CC[C@]2(C)CCC([C@H](C)C(=O)N3CCC(C)CC3)[C@H](O)[C@H]2[C@@H]1C (stereo partly specified) |  | inactive: 53.9%
25 | CC(=O)Nc1ccc(NC(=O)c2cc(=O)c3ccc(C)c(C)c3o2)cc1 | inconclusive: 70.8 µM [inhibitor, partial curve, poor fit] | 
26 | COc1ccccc1NC(=O)Nc1cc(F)ccc1F | inconclusive: 50.1 µM [inhibitor, partial curve, poor fit] | 
27 | Cc1cccnc1NC(=O)CCc1nnc2ccc(NCc3ccco3)nn12 |  | inactive: 22.9%
28 | O=C1NC(C(=O)Nc2ccccc2F)Cn2cccc21 (stereo unspecified) |  | inactive: 24.9%
29 | COC(=O)[C@]12CCCCC=C1N(CCc1ccc(OC)c(OC)c1)C(=O)[C@H](CC(=O)N1CCN(C(=O)c3ccco3)CC1)C2 | inconclusive: 126 µM [inhibitor, single point] | 
30 | CCN1C(=O)C(=O)N(CC(=O)Nc2cccc(C(F)(F)F)c2)C1=O | inconclusive: 44.7 µM [inhibitor, partial curve, poor fit] | 
31 | CCOc1ccc(-n2c(Cc3cc(=O)[nH]c(=O)[nH]3)nnc2SCC(=O)OC)cc1 | inconclusive: 7.94 µM [inhibitor, full curve, poor fit] | 
32 | Cc1nc2ccccc2nc1N1CCC(C)CC1 | inconclusive: 44.7 µM [inhibitor, partial curve, poor fit] | 
33 | CCOc1ccc(CN2CCN(Cc3ccc4c(c3)c3ccccc3n4CC)CC2)cc1 | inconclusive: 12.6 µM [inhibitor, full curve, poor fit] | 
34 | CS(=O)(=O)c1ccc(Cl)c(NC(=O)c2cccc(-n3cnnn3)c2)c1 | inconclusive: 1.12 µM [inhibitor, full curve, poor fit] | 
35 | O=[N+]([O-])c1ccc(Sc2ccc(NC(=S)Nc3ccccc3)cc2)cc1 | inconclusive: 44.7 µM [inhibitor, partial curve, poor fit] | 
36 | Cc1cc(=O)oc2cc(OCC(=O)N3CC(=O)Nc4ccccc43)c(Cl)cc12 |  | inactive: 7.4%
37 | CCOC(=O)c1ccc(N2NC(=O)/C(=C/c3ccc(OC(=O)c4ccco4)c(OC)c3)C2=O)cc1 | active: 22.4 µM | 
38 | CNC(=O)N1CCC(C2CCN(C(=O)CCc3ccccc3)C2)CC1 (stereo unspecified) |  | inactive: 35.7%
39 | Cc1ccc(-c2c(C(=O)N3CCN(c4ccc(F)cc4)CC3)oc(=O)c3ccccc23)cc1 |  | inactive: -0.59%
40 | O=S(=O)(Nc1cccc(S(=O)(=O)N2CCCC2)c1)c1ccc(Cl)cc1 | inconclusive: 112 µM [inhibitor, partial curve, poor fit] | 
41 | C=CCNc1nc(Nc2ccc(OC)cc2)nc(OC)n1 | inconclusive: 89.1 µM [inhibitor, single point] | 
42 | NC(=O)c1ccccc1NC(=O)CS(=O)(=O)Cc1ccccc1 |  | inactive: -5.96%
43 | Cc1ccc(NC(=O)C2(C)CCN2C(=O)CC(c2ccccc2)c2ccccc2)cc1 (stereo unspecified) | inconclusive: 100 µM [inhibitor, single point] | 
44 | CCc1nn(CC(=O)NCc2ccc(C)cc2)c(=O)c2cc3occc3n12 | inconclusive: 158 µM [inhibitor, partial curve, poor fit] | 

2 entries drawn at random from the list so far:
Row | SMILES | Potency | activity change, negative = inhibition
15 | Cc1cc(C)c2cccc(NC(=O)C(C)N3C(=O)c4ccccc4C3=O)c2n1 (stereo unspecified) |  | inactive: 31.8%
12 | O=C1CC(c2c(F)cccc2Cl)c2c(ccc3ccccc23)N1 (stereo unspecified) | inconclusive: 126 µM [inhibitor, partial curve, poor fit] | 

Additional results

Row | SMILES | Potency | activity change, negative = inhibition
45 | CCc1nnc(NS(=O)(=O)c2ccc(NC(=S)Nc3ccc(F)cc3)cc2)s1 | inconclusive: 70.8 µM [inhibitor, partial curve, poor fit] | 
46 | COC(=O)c1cc(NC(=O)CN(c2ccc(OC)cc2)S(=O)(=O)c2ccc(F)cc2)ccc1Cl | inconclusive: 126 µM [inhibitor, partial curve, poor fit] | 
47 | COc1ccc(-n2nc(C(=O)NCC(=O)N3CCN(c4ccccc4F)CC3)c3ccccc3c2=O)cc1 |  | inactive: -0.544%
48 | CC1=C(C(=O)OCc2ccccc2)C(c2ccc(Br)cc2)NC(=O)N1CCCCCC(=O)O (stereo unspecified) |  | inactive: -23.7%
49 | O=C(O)CCn1cc(/C=C2/NC(=S)N(c3ccccc3)C2=O)c(-c2ccccc2)n1 | inconclusive: 28.2 µM [inhibitor, partial curve] | 
50 | COc1ccc2c(COC(=O)[C@H](C)NS(=O)(=O)c3ccccc3F)cc(=O)oc2c1 | inconclusive: 100 µM [inhibitor, partial curve, poor fit] | 
51 | COc1ccc2c(c1)c(C(=O)CN(C)C)c(C)n2C | inconclusive: 50.1 µM [inhibitor, single point] | 
52 | CCOC(=O)/C=C1\SCC(=O)N1CC(=O)NC(c1ccccc1)c1ccccc1 | inconclusive: 2.51 µM [inhibitor, full curve, poor fit] | 
53 | Cc1ccc2[nH]cc(CCNC(=O)c3ccc(C(F)(F)F)cc3)c2c1 | inconclusive: 89.1 µM [inhibitor, single point] | 
54 | CC(C)(CC(=O)O)CC(=O)Nc1ccc2c(c1)ncn2CCc1ccccc1 | inconclusive: 39.8 µM [inhibitor, partial curve, poor fit] | 
55 | CCOC(=O)c1sc2nc(N3CCOCC3)c3c(c2c1N)CC(C)(C)N(C)C3 | inconclusive: 39.8 µM [inhibitor, single point] | 
56 | Brc1cc2c(cc1Br)OCCOCCOCCOCCO2 |  | inactive: 2.09%
57 | CCC(c1ccccc1)N1Cc2cc(NS(=O)(=O)c3ccc(Cl)cc3)ccc2OC(C)C1=O (stereo unspecified) | inconclusive: 25.1 µM [inhibitor, full curve] | 
58 | Cc1ccccc1CS(=O)CCC(=O)Nc1ccccc1 (stereo unspecified) | inconclusive: 39.8 µM [inhibitor, partial curve, poor fit] | 
59 | Oc1cccc(Nc2nc(-c3ccc(F)cc3F)cs2)c1 | inconclusive: 25.1 µM [inhibitor, partial curve, poor fit] | 
60 | COC(=O)c1ccc2nc(-c3ccccc3)c(Cc3ccsc3)n2c1 | inconclusive: 6.31 µM [inhibitor, partial curve, poor fit] | 
61 | FC(F)(F)c1ccc(SCc2nc3ccccc3s2)nc1 | inconclusive: 35.5 µM [inhibitor, partial curve, poor fit] | 
62 | S=c1[nH]ncn1/N=C/c1cccc(Oc2ccccc2)c1 | inconclusive: 63.1 µM [inhibitor, partial curve, poor fit] | 
63 | Cc1ccc(SSc2cc(C)ccc2N)c(N)c1 | active: 10 µM | 
64 | O=C(Nc1ccc(F)cc1)c1nc2c(nnn2Cc2cccc3ccccc23)c(=O)[nH]1 |  | inactive: 4.5%
65 | O=C(Nc1cc(Cl)c(Cl)cc1Cl)c1ccc(-c2ccccc2)cc1 |  | inactive: 13.2%
66 | COCCN(C(=O)c1snc(C(N)=O)c1N)C(C(=O)NC1CCCCC1)c1ccc(OC)c(OC)c1 (stereo unspecified) |  | inactive: 101%
